In PubChem BioAssay AID2551 (National Center for Advancing Translational Sciences (NCATS), 2010):
Where “and” joins values, the source holds several entries; their conditions need not be identical. Identical values can stand only once. Hit rate of the full screen: of about 310,000 compounds, about 17,000 (5.5%) were called active. The shares of active, inactive and inconclusive entries below differ from those in the screen. Calls come from the whole dose curve; as a rule, active = well fitted inhibition curve with a large enough effect; inconclusive = small, poorly fitted or top-dose-only effect, or effect the other way; inactive = no such curve, though single readings can be large or run the other way. A potency beside an inconclusive call is a rough fit, not a confirmed value.

Protein sequences, listed by entry. Tags and fused reporters are not part of them. Lines headed by an entry give the natural chain unless they say otherwise; changes in a name come on top.
UniProt P51450: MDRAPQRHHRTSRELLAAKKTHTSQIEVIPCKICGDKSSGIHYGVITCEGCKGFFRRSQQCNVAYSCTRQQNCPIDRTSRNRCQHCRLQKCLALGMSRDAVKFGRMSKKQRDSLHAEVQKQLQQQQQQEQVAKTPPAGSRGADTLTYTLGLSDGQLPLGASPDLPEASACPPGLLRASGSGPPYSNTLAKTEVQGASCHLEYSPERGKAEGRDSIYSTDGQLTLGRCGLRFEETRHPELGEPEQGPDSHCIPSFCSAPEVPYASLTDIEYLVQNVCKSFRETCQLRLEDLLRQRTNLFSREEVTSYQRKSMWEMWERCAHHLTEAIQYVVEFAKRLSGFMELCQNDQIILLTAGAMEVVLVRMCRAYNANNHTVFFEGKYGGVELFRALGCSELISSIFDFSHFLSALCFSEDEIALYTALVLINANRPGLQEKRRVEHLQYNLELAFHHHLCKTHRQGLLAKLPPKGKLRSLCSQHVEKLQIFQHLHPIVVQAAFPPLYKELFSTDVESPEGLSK

Each compound was assayed against Nuclear receptor ROR-gamma (Mus musculus) (UniProt P51450) (assay: qHTS for inhibitors of ROR gamma transcriptional activity). Conditions: Drosophila S2 Gal4-RORgamma UAS-luciferase reporter, 20 h; activity change, negative = inhibition: at 53.6 µM (top of the series).
Summary of the method: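 Drosophila Schneider cells stably carrying a metallothionein-driven Gal4 DBD–ROR gamma fusion and a UAS-Photinus luciferase reporter were exposed to compound for 1 hr, then induced with copper sulfate (700 uM final) for 20 hr at ambient temperature before luminescence reading.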
% is set by controls: 0 for no effect and ±100 for the full control effect; potency is the fitted concentration of half-maximal effect.
Note: nearly all actives have a fitted effect of over 60% in size.

**Q.** With `COc1cc(C(C)=O)ccc1OCC(O)CN1CCN(c2cc(C)cc(C)c2)CC1` (configuration not stated) as the compound, how does the “activity change, negative = inhibition” value read?
**A.** inactive: 16.9%

**Q.** Which Potency does the source give for `COc1cc(SC)ccc1C(=O)Nc1ccccn1` here?
**A.** active: 8.91 µM

**Q.** Which Potency does the source give for `COCCN(C(=S)Nc1ccc(C)cc1)C(C)c1ccco1` (configuration not stated) here?
**A.** inconclusive: 10 µM [inhibitor, partial curve, poor fit]

**Q.** How did the Potency turn out when `Cc1cc(/C=N/NC(=O)C(O)(c2ccccc2)c2ccccc2)c(C)n1-c1ccc(C(=O)O)cc1` was run?
**A.** active: 11.2 µM

**Q.** `CC(=O)Oc1ccc(C(=O)NCc2ccc3c(c2)OCO3)cc1` was tested. Which Potency did it give?
**A.** inconclusive: 31.6 µM [activator, single point]

**Q.** Which Potency does the source give for `NC(=O)c1ccc(N=Cc2ccc([N+](=O)[O-])s2)cc1` here?
**A.** inconclusive: 8.91 µM [inhibitor, single point]

**Q.** Which Potency does the source give for `O=C(CC1SC(=O)NC1=O)Nc1ccc(Cl)cc1` (configuration not stated) here?
**A.** inconclusive: 35.5 µM [inhibitor, single point]

**Q.** For `COc1ccc(OCC(=O)N2CCN(C(=O)COc3ccc(Br)cc3)CC2)cc1`, which Potency is on record?
**A.** inconclusive: 35.5 µM [activator, single point]

**Q.** With `CN(C)S(=O)(=O)c1cccc(COC(=O)c2cccnc2Cl)c1` as the compound, how does the Potency read?
**A.** inconclusive: 15.8 µM [activator, partial curve]

**Q.** How did the Potency turn out when `Cc1ccc(S(=O)(=O)C2(C(=O)Nc3nccs3)CC2)cc1` was run?
**A.** inconclusive: 11.2 µM [inhibitor, single point]

**Q.** `Cc1[nH]nc2c1C(c1ccco1)C(C#N)=C(N)O2` (configuration not stated) was tested. Which Potency did it give?
**A.** inconclusive: 17.8 µM [inhibitor, single point]

**Q.** Which “activity change, negative = inhibition” value does the source give for `COc1ccc(Br)cc1C(=O)Nc1ccc(C(=O)O)cc1` here?
**A.** inactive: 17.7%

**Q.** Which “activity change, negative = inhibition” value does the source give for `CN(CC(=O)Nc1ccc(N2CCOCC2)cc1)C(=O)c1ccc(O)c(Cl)c1` here?
**A.** inactive: -5.33%

**Q.** Which Potency does the source give for `O=C(NC(=S)Nc1ccc2cn[nH]c2c1)c1ccccc1` here?
**A.** inconclusive: 10 µM [inhibitor, partial curve]

**Q.** `COc1ccc(C(CCN2CCCC2)c2c(OC)cc(OC)c3c(-c4ccccc4)cc(=O)oc23)cc1` (configuration not stated) was tested. Which Potency did it give?
**A.** inconclusive: 562 nM [inhibitor, partial curve, poor fit] and inconclusive: 35.5 µM [inhibitor, single point]

**Q.** `CCCCC(=O)Nc1cccc(-c2nnc(-c3ccccc3)o2)c1` was tested. Which Potency did it give?
**A.** inconclusive: 1.58 µM [activator, partial curve]

**Q.** With `CCN1C(=O)C(O)(CC(=O)c2cccc(-n3cccc3)c2)c2ccccc21` (configuration not stated) as the compound, how does the Potency read?
**A.** inconclusive: 10 µM [activator, partial curve]

**Q.** How did the Potency turn out when `O=C(Nc1ccc2c(c1)OCO2)C1CC(c2ccccc2Cl)=NO1` (configuration not stated) was run?
**A.** inconclusive: 2.51 µM [activator, full curve, poor fit]

**Q.** How did the Potency turn out when `COc1cc(OC)cc(C(=O)NCCCN2CCOCC2)c1` was run?
**A.** inconclusive: 0.0447 µM [inhibitor, single point]

**Q.** How did the “activity change, negative = inhibition” value turn out when `Cc1nn(-c2ccccc2)c2sc(C(=O)NCCN3CCOCC3)cc12` was run?
**A.** inactive: -11%

**Q.** Which Potency does the source give for `Cc1ccc(NC(=O)CN(C)S(=O)(=O)c2cccs2)cc1C` here?
**A.** inconclusive: 31.6 µM [inhibitor, single point]

**Q.** Which Potency does the source give for `CC(Oc1ccc(-c2ccccc2)c(F)c1)c1ccn(S(=O)(=O)c2ccc(F)cc2)n1` (configuration not stated) here?
**A.** inconclusive: 35.5 µM [activator, single point]

**Q.** Which Potency does the source give for `Cc1nc2[nH]c(=O)c3c(n2n1)NC1=C(C(=O)CC(C)(C)C1)C3c1ccccc1` (configuration not stated) here?
**A.** inconclusive: 15.8 µM [activator, single point]

**Q.** With `Cc1ccc(NC(=O)c2nc[nH]c2C(=O)N[C@@H](C)c2ccccc2)cc1` as the compound, how does the Potency read?
**A.** active: 1.12 µM

**Q.** `Cc1cc(C)cc(N(CC(=O)Nc2ccccc2-c2ccccc2)S(=O)(=O)c2ccccc2)c1` was tested. Which “activity change, negative = inhibition” value did it give?
**A.** inactive: -2.24%

**Q.** For `O=C(COC(=O)C(c1ccccc1)c1ccccc1)NCc1ccco1`, which Potency is on record?
**A.** inconclusive: 35.5 µM [inhibitor, single point]

**Q.** Which Potency does the source give for `CCOC(=O)c1[nH]c(C)c(C(=O)Nc2ccc(C)c(C)c2)c1C` here?
**A.** inconclusive: 14.1 µM [activator, partial curve]

**Q.** `O=C(N/N=C/c1cccc(OCc2ccccc2)c1)c1ccc(Br)o1` was tested. Which Potency did it give?
**A.** inconclusive: 35.5 µM [inhibitor, single point]

**Q.** How did the Potency turn out when `ON/C=N/C(=S)Nc1ncc(C(F)(F)F)cc1Cl` was run?
**A.** active: 1.58 µM

**Q.** `c1ccc(-n2ncc3c(NCCCN4CCOCC4)ncnc32)cc1` was tested. Which Potency did it give?
**A.** inconclusive: 15.8 µM [inhibitor, single point]

**Q.** Which Potency does the source give for `Cc1cc(C)c(C(=O)/C=C/C=C/c2ccccc2)c(=O)[nH]1` here?
**A.** inconclusive: 3.16 µM [activator, single point]

**Q.** How did the Potency turn out when `Cc1ccc(CNC(=S)NCc2ccncc2)cc1` was run?
**A.** inconclusive: 3.55 µM [activator, partial curve]

**Q.** `CCOC(=O)C1=C(CC)Nc2ccccc2N=C1NC(=O)c1ccc(S(=O)(=O)N(C)C)cc1` was tested. Which “activity change, negative = inhibition” value did it give?
**A.** inactive: -12.8%

**Q.** `COc1ccc(N2CCN(C(=O)CCNS(=O)(=O)c3ccc(Br)s3)CC2)cc1` was tested. Which Potency did it give?
**A.** inconclusive: 10 µM [activator, partial curve]

**Q.** Which “activity change, negative = inhibition” value does the source give for `O=C(CCCSc1nc2ccccc2c(=O)[nH]1)c1ccc(F)cc1` here?
**A.** inactive: -8%

**Q.** With `CC(=O)c1ccc(-c2cc(C3C4C=CCC(C)C4C(=O)N3Cc3ccccc3)ccc2F)cc1` (configuration not stated) as the compound, how does the “activity change, negative = inhibition” value read?
**A.** inactive: -16.3%

**Q.** For `C=CCn1c(=O)c2c(nc3n2CC(C)CN3CCc2ccccc2)n(C)c1=O` (configuration not stated), which “activity change, negative = inhibition” value is on record?
**A.** inactive: 0.512%

**Q.** For `CCN(CC)S(=O)(=O)c1ccc(C)c(NC(=O)/C=C/c2cccs2)c1`, which “activity change, negative = inhibition” value is on record?
**A.** inactive: 41.7%

**Q.** How did the Potency turn out when `COc1ccc(C(=O)NCc2cn3cccc(C)c3n2)cc1OC` was run?
**A.** inconclusive: 20 µM [inhibitor, single point]

**Q.** How did the Potency turn out when `C=CCc1ccc(O)c(-c2ccc(O)c(CC=C)c2)c1` was run?
**A.** inconclusive: 35.5 µM [inhibitor, single point]

**Q.** How did the “activity change, negative = inhibition” value turn out when `CC1CCN(C(C(=O)NC2CCCCC2)c2cc3c(cc2[N+](=O)[O-])OCO3)CC1` (configuration not stated) was run?
**A.** inactive: 0.0106%

**Q.** Which Potency does the source give for `CCN(CC(=O)NC1CCS(=O)(=O)C1)c1nc(-c2ccccc2)nc2ccccc12` (configuration not stated) here?
**A.** inconclusive: 35.5 µM [activator, single point]

**Q.** `CSc1ccccc1NC(=O)CN(C)CC(=O)Nc1cc(C)ccc1C` was tested. Which Potency did it give?
**A.** inconclusive: 20 µM [inhibitor, single point]

**Q.** With `C=CCNC(=S)NNC(=O)c1ccc(Br)o1` as the compound, how does the Potency read?
**A.** active: 2 µM

**Q.** With `CCOC(=O)c1nnn(-c2nonc2-n2cccc2)c1CN1CCC(C)CC1` as the compound, how does the “activity change, negative = inhibition” value read?
**A.** inactive: 40.8%

**Q.** Which Potency does the source give for `Brc1ccc(-c2cnc3n2CCCC3)cc1` here?
**A.** inconclusive: 22.4 µM [inhibitor, partial curve, poor fit]

**Q.** How did the Potency turn out when `Cc1nn(-c2ccccc2)c(C)c1C(=O)OC/C(O)=C(\C#N)c1nc2ccccc2[nH]1` was run?
**A.** inconclusive: 15.8 µM [inhibitor, single point]

**Q.** How did the Potency turn out when `O=C(CCCN1C(=O)/C(=C/c2ccccc2)SC1=S)Nc1ccc(O)cc1` was run?
**A.** active: 3.98 µM

**Q.** Which Potency does the source give for `Nc1cc2nsnc2cc1Br` here?
**A.** active: 12.6 µM

**Q.** With `Cc1cnccc1CN(C)Cc1nc(Cc2ccccc2Cl)no1` as the compound, how does the Potency read?
**A.** inconclusive: 35.5 µM [inhibitor, single point]

**Q.** For `O=C(Nc1ccccn1)C1(c2ccccc2)CCCC1`, which “activity change, negative = inhibition” value is on record?
**A.** inactive: -11.7%

**Q.** With `O=c1c(-c2ccc(O)cc2)coc2cc(O)cc(O)c12` as the compound, how does the Potency read?
**A.** inconclusive: 15.8 µM [inhibitor, partial curve]

**Q.** For `O=C(Cc1c(Cl)cccc1Cl)Nc1ccc(S(=O)(=O)Nc2ncccn2)cc1`, which “activity change, negative = inhibition” value is on record?
**A.** inactive: 15.1%

**Q.** `CC(C)CC(=O)Nc1ccc(-c2nc3ccccc3c(=O)[nH]2)cc1` was tested. Which “activity change, negative = inhibition” value did it give?
**A.** inactive: -31.9%

**Q.** How did the Potency turn out when `CCCCC(=O)NC(c1ccc([N+](=O)[O-])cc1)c1c(O)ccc2ccccc12` (configuration not stated) was run?
**A.** inconclusive: 11.2 µM [activator, partial curve]

**Q.** `Cc1ccc(C(=O)CC(=O)c2ccc(C)cc2O)cc1` was tested. Which Potency did it give?
**A.** active: 8.91 µM

**Q.** Which Potency does the source give for `O=C(Nc1ccc(CN2CCOCC2)cc1)c1ccccc1F` here?
**A.** active: 0.631 µM

**Q.** `O=C(/C(C=Nc1cc2c(oc1=O)CCCC2=O)=C(\O)c1ccccc1)c1ccccc1` was tested. Which Potency did it give?
**A.** inconclusive: 14.1 µM [inhibitor, single point]

**Q.** With `CCOC(=O)Nc1ccc2c(c1)N(C(=O)CCN1CCOCC1)c1ccccc1S2` as the compound, how does the Potency read?
**A.** inconclusive: 35.5 µM [inhibitor, single point]

**Q.** With `CN(C)/C=C/c1onc(-c2c(F)cccc2Cl)c1C#N` as the compound, how does the Potency read?
**A.** inconclusive: 20 µM [activator, single point]

**Q.** Which Potency does the source give for `CC1CN(C(=S)Nc2ccc(Br)cc2)CC(C)O1` (configuration not stated) here?
**A.** inconclusive: 10 µM [inhibitor, partial curve, poor fit]

**Q.** With `Oc1c(Br)cc(Br)cc1/C=N/n1c(-c2ccccc2)n[nH]c1=S` as the compound, how does the Potency read?
**A.** inconclusive: 14.1 µM [inhibitor, partial curve, poor fit]

**Q.** How did the Potency turn out when `Cc1cc(Cl)cc(C)c1OCCCCn1ccnc1` was run?
**A.** active: 11.2 µM

**Q.** How did the Potency turn out when `O=C(C1=C[C@H](C2CCCCC2)C[C@H](OCCCCO)O1)N1CCN(Cc2ccc3c(c2)OCO3)CC1` was run?
**A.** inconclusive: 17.8 µM [activator, single point]

**Q.** Which Potency does the source give for `CCn1cc(C(=O)Nc2ccc(C)c([N+](=O)[O-])c2)cn1` here?
**A.** inconclusive: 1.78 µM [activator, partial curve]

**Q.** For `CC1=NN(C(=O)c2ccccc2)C(O)(c2ccc(Br)cc2)C1` (configuration not stated), which Potency is on record?
**A.** active: 7.94 µM

**Q.** For `Cc1ccc(Cl)cc1NC(=S)N1CCCCCC1`, which Potency is on record?
**A.** active: 10 µM

**Q.** How did the Potency turn out when `O=c1[nH]c(CSc2nc3ccccc3s2)nc2cc(Cl)ccc12` was run?
**A.** inconclusive: 20 µM [inhibitor, single point]

**Q.** `Cc1ccc(-n2[nH]c(=O)c(-c3ccccn3)c2C)cc1` was tested. Which Potency did it give?
**A.** active: 1.26 µM

**Q.** Which Potency does the source give for `C=C1CCC2C(C)(C)[C@H](O)CC[C@@]2(C)[C@@H]1COc1cc(=O)oc2ccccc12` (some centres not stated) here?
**A.** inconclusive: 35.5 µM [activator, single point]

**Q.** For `COCCN(Cc1cc2c(C)cc(C)cc2nc1Cl)C(=O)c1ccccc1F`, which “activity change, negative = inhibition” value is on record?
**A.** inactive: 2.42%

**Q.** `O=C(CSc1nnc(C2CC2)n1Cc1ccccc1)c1ccc(S(=O)(=O)N2CCOCC2)cc1` was tested. Which Potency did it give?
**A.** inconclusive: 12.6 µM [inhibitor, single point]
